Like-named read-outs stand apart in the source and are kept apart here. Results are given in words; binding and its absence hold for the method and conditions named. Binding seen in cells or lysates may run through a third protein. Some results given as binding are weak or reduced against the parent protein; the word gives no strength.
What was measured:
Assay in all cases: co-IP
myc-EXOSC3 = myc-EXOSC3 (UniProt Q7TQK4)
[1] = target: EXOSC3 (mouse (endogenous in N2A)) (UniProt Q7TQK4)
[2] = target: EXOSC3 (mouse (endogenous in N2A)) (UniProt Q7TQK4); remark: listed apart in the source

Amino acid sequences for entries named in this document (tags omitted). A change or cut given only in a name is not applied to a line headed by its entry.
UniProt Q7TQK4: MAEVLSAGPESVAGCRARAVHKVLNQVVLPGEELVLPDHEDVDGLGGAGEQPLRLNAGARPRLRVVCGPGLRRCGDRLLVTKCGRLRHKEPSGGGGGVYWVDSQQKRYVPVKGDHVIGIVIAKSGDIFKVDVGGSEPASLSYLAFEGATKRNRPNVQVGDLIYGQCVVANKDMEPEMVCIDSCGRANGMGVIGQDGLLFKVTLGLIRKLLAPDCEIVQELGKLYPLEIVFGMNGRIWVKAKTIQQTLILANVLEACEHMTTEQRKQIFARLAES
UniProt Q9JHI7: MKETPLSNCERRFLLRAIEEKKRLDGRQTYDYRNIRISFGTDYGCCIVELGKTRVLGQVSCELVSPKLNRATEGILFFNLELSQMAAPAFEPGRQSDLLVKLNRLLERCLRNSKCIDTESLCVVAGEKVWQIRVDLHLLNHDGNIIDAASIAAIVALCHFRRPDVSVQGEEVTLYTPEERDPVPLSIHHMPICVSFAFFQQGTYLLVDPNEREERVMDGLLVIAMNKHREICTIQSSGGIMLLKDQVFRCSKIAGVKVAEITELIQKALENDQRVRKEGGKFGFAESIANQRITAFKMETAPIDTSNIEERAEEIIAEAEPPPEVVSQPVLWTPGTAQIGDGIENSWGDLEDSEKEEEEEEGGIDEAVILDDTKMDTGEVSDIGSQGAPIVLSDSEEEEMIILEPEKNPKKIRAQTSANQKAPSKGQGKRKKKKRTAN

- binding (myc-EXOSC3): binds
- binding [1]: binds
- binding [2]: binds
Substance: EXOSC9 (from UniProt Q9JHI7 1-438)

Reference: article doi:10.1101/2023.04.17.537228
